PubChem BioAssay AID1508597 – Cure First – 2020
This is an unselected part of the about 2,100 reagents, in one setting of the screen. 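Calls flag viability under 80% in either arm, not effects specific to rucaparib; the reference for percent is not stated.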 The record does not give: the 100% reference.

- Screen: 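Knock-downs altering ovarian cancer cell survival with or without PARP inhibitor rucaparib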 (primary screen)
- Cells: human ovarian carcinoma lines grown from tumours: OCI-P5x (papillary serous) and OCI-C5x (clear cell)
- Knock-down reagent: siRNA pool against human genes, 1.25 pmol siRNA per well
- Timing: 72 h or 96 h, depending on the cell culture
- Treatment: rucaparib 20 µM (about IC30) or vehicle, present until read-out
- Rucaparib or vehicle: Vehicle
- Cell line: OCI-P5x (serous)
- Read-out: 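ATP luminescence measured at 72 or 96 h according to the culture, then normalised and expressed as percent viability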
- Scale: viability, normalised: higher = more viable cells remaining
- Rule for the call: 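a well counts as a hit if its normalised viability is under 80 percent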
- Meaning of the calls: active = viability under 80%; inactive = viability 80% or more

no.	Gene	technical replicate	viability, normalised (%)	outcome
1	TRIP13	1	55.1	active
2	TRIP13	2	52.3	active
3	TRIP13	3	55.3	active
4	PDE3B	1	73.8	active
5	PDE3B	2	45.9	active
6	PDE3B	3	46.7	active
7	ROR1	1	62.8	active
8	ROR1	2	61.6	active
9	ROR1	3	66	active
10	SMC2	1	56.4	active
11	SMC2	2	60.9	active
12	SMC2	3	81.5	inactive
13	RAG2	1	56.2	active
14	RAG2	2	74.7	active
15	RAG2	3	122	inactive
16	PDE1C	1	63	active
17	PDE1C	2	70.7	active
18	PDE1C	3	68.4	active
19	SMYD3	1	45	active
20	SMYD3	2	46	active
21	SMYD3	3	61.8	active
22	STK33	1	75.3	active
23	STK33	2	71.9	active
24	STK33	3	76.9	active
